T. brucei: 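Whole-parasite assay of Trypanosoma brucei over 72 hours; the read-out is not stated. Tested at 30 µM. Higher reads as stronger inhibition (inferred: compounds with an IC50 in retests scored well above the rest). Values scatter widely below zero; nearly all retest evidence comes from the higher of the two concentrations used. Of about 64,000 compounds tested this way, about 940 (1.5%) reached 50% or more in at least one test.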
Toxoplasma: 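Assay of Toxoplasma gondii numbers, read through their beta-galactosidase reporter with a colour substrate. Tested at 10 µM. Higher reads as fewer parasites (inferred from which compounds were picked for retests). Of about 67,000 compounds tested this way, about 260 (0.38%) reached 50% or more in at least one test.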

Results are given as percent effect. The record does not define 0% and 100%; most values in the screen are far below 50% and negative numbers occur (in some assays of this library far below -100). Compounds were drawn at random from those tested, without regard to their results.

For CC(=O)NCCCNCc1c(C)nn(CC(C)C)c1N(C)C the result was T. brucei: -37.42%; Toxoplasma: -12.82%.
For Cc1nnc(C(C)N2CCN(Cc3noc(C(C)(C)C)n3)CC2)o1 (stereo not drawn) the result was T. brucei: -33.5%; Toxoplasma: -8.09%.
For O=C(O)C(F)(F)F.[H][C@]12CCN(C(=O)c3ccncc3F)[C@@]1([H])CC[C@H](COCC)O2 the result was T. brucei: -49.21%; Toxoplasma: -0.9038%.
For CC(=O)NCCCNCc1ccc(Cl)c2cccnc12 the result was T. brucei: -8.67%; Toxoplasma: -6.901%.
For CCOC(=O)c1cn(CC(O)c2ccccc2OC)nn1 (stereo not drawn) the result was T. brucei: -5.63%; Toxoplasma: -12.85%.
For [H][C@@]12COC[C@@H](Cc3nc(C)no3)[C@]1([H])CN(S(C)(=O)=O)C2 the result was Toxoplasma: -25.58%.
For Cc1ncc(CN(C)CC(O)c2cccc(C(F)(F)F)c2)s1 (stereo not drawn) the result was T. brucei: -49.09%; Toxoplasma: 10.67%.
For Clc1cccc(C2CCN(c3ncnc4c3CCNC4)C2)c1 (stereo not drawn) the result was T. brucei: 68.15%; Toxoplasma: 15.09%.
For CCCc1nnc(NCCc2noc(C3CCC3)n2)o1 the result was T. brucei: -16.87%; Toxoplasma: -13.3%.
For O=C1C(Nc2ccc3nccnc3n2)CCN1c1ccccc1 (stereo not drawn) the result was T. brucei: -11.47%; Toxoplasma: -0.12%.
For Cc1ccccc1NS(=O)(=O)c1ccc(C(=O)O)cc1F the result was T. brucei: -20.32%; Toxoplasma: 2.518%.
For [H][C@@]12CN(C(=O)c3cc(=O)[nH]c4ccc(F)cc34)C[C@]1([H])[C@H]2CN(C)C the result was T. brucei: -65.29%; Toxoplasma: 13.48%.
For CCN1CCC2(CC1)OCCN2C(=O)c1cc(Cl)c(OC)c(Cl)c1.Cl the result was T. brucei: 89.37%; Toxoplasma: 25.61%.
For COc1ccc2c(ccn2CCC(=O)Nc2ccc(C(N)=O)cc2)c1 the result was T. brucei: -2.602%.
For Cn1ccnc1CN1CCC2(CC1)COCCN(c1ncccn1)C2 the result was T. brucei: 7.51%; Toxoplasma: -11.15%.
For O=C(NC1(c2cccc(F)c2)CCOCC1)c1ccoc1 the result was T. brucei: -15.33%; Toxoplasma: 17.43%.
For COc1nc(C)ccc1CNC(=O)NC(c1ncc(C)s1)C1CC1 (stereo not drawn) the result was T. brucei: -23.55%; Toxoplasma: 12.97%.
For CCn1c(C)nnc1CN(C)C1CCN(CCCOC)C1 (stereo not drawn) the result was T. brucei: 0.3971%; Toxoplasma: -10.45%.
For O=C(COc1ccccc1C(F)(F)F)NCCNC(=O)c1ccccc1 the result was T. brucei: -11.76%; Toxoplasma: -10.6%.
For Cc1ncsc1CCCn1ccnc1-c1cc2n(n1)CCCNC2 the result was T. brucei: -111.2%; Toxoplasma: -7.606%.
For O=C(O)C(F)(F)F.O=C(O)C(F)(F)F.O=C(O)C(F)(F)F.c1ccc(N2CC3(CCN(Cc4cccnc4)C3)C2)nc1 the result was T. brucei: 0.3153%; Toxoplasma: 3.365%.
For CN(C)C(CNCc1nc(-c2ccsc2)no1)c1cccs1 (stereo not drawn) the result was T. brucei: -179.7%; Toxoplasma: -3.101%.
For NC(=O)CCn1cc(CNCCCc2ccncc2)c2ccccc21 the result was T. brucei: -12.51%; Toxoplasma: 0.8759%.
For COCCN1CCC(CNC(=O)CCc2cc(F)ccc2F)C1 (stereo not drawn) the result was T. brucei: -4.617%; Toxoplasma: 10.26%.
For O=C1OCCC1N1CCN(c2cnccn2)CC1 (stereo not drawn) the result was T. brucei: -30.28%; Toxoplasma: 1.138%.
For CN(C)C(=O)C1(c2cnccn2)CCCN1C(=O)Cc1ccccc1 (stereo not drawn) the result was T. brucei: 5.642%; Toxoplasma: 9.716%.
For COc1ccc(C)cc1NC(=O)Cn1nc(C)c(C#N)c1N the result was T. brucei: -11.41%; Toxoplasma: 8.3%.
For CCC1CC(=O)NCc2nc3sc(C)cn3c21 (stereo not drawn) the result was T. brucei: -10.21%; Toxoplasma: 3.022%.
For CCCc1cc(C(=O)NCCN2C(=O)c3ccccc3C2=O)[nH]n1 the result was T. brucei: 26.94%; Toxoplasma: -4.324%.
For Cc1ccc(S(=O)(=O)N2CCOc3ccccc32)cc1C(=O)O the result was T. brucei: 18.13%; Toxoplasma: -11.8%.
For Cc1ccc(-c2nc(CN3CCOCC3)no2)cc1N1CCNC1=O the result was T. brucei: -93.16%; Toxoplasma: -15.35%.
For Cn1ccc(C(=O)N2CCN(Cc3ccccc3F)CC2)cc1=O the result was T. brucei: -57.84%; Toxoplasma: 6.922%.
For CCc1ncnc2c1CCN(CC(=O)N(C)C)CC2.O=C(O)C(F)(F)F the result was T. brucei: -68.76%; Toxoplasma: 8.406%.
For O=c1[nH]nc2n1CCN(S(=O)(=O)c1ccccc1Cl)C2 the result was T. brucei: -12.9%; Toxoplasma: 1.126%.
For CCN(Cc1nnsc1Cl)C(C)c1ccc(C#N)cc1 (stereo not drawn) the result was T. brucei: -32.48%; Toxoplasma: -3.425%.

For reference, 4 entries once more:

{"structure": "Cn1ccnc1CN1CCC2(CC1)COCCN(c1ncccn1)C2", "T. brucei": 7.51, "Toxoplasma": -11.15}
{"structure": "CCN1CCC2(CC1)OCCN2C(=O)c1cc(Cl)c(OC)c(Cl)c1.Cl", "T. brucei": 89.37, "Toxoplasma": 25.61}
{"structure": "[H][C@@]12COC[C@@H](Cc3nc(C)no3)[C@]1([H])CN(S(C)(=O)=O)C2", "Toxoplasma": -25.58}
{"structure": "O=C(O)C(F)(F)F.O=C(O)C(F)(F)F.O=C(O)C(F)(F)F.c1ccc(N2CC3(CCN(Cc4cccnc4)C3)C2)nc1", "T. brucei": 0.3153, "Toxoplasma": 3.365}

From ChEMBL document CHEMBL3988442, “University of Dundee, Small-Polar-MMV Screening Library” (2021).